No constants are given. Whether binding was seen depends on the method and setting. In cells and extracts the contact can be indirect. For part of these data: Tags and fused reporters may be left off the sequences shown.
What was measured:
Assay in all cases: co-IP; Flag-tagged proteins expressed in 293T cells and immunoprecipitated with anti-Flag antibody; endogenous partners detected by western blot
Flag-Menin = target: T1, Flag-Menin (UniProt O00255)
T1 sequence: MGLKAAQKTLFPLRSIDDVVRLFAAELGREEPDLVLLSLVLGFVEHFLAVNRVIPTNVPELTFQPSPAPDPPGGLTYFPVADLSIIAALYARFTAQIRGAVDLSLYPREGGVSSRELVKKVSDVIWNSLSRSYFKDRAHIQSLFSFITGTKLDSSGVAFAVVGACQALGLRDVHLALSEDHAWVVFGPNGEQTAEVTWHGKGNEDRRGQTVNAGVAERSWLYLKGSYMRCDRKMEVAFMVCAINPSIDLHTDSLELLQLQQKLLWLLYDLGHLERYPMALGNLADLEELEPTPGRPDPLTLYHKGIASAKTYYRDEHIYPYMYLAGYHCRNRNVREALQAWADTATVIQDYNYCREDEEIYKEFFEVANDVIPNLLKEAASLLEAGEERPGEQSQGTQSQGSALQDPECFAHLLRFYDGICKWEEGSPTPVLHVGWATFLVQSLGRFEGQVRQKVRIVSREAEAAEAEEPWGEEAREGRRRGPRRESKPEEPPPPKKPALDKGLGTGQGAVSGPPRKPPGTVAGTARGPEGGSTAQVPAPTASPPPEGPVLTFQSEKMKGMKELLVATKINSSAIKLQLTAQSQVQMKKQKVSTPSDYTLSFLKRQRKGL

Chains of the proteins cited; added tags and fusions are not shown.
UniProt Q6ZW49: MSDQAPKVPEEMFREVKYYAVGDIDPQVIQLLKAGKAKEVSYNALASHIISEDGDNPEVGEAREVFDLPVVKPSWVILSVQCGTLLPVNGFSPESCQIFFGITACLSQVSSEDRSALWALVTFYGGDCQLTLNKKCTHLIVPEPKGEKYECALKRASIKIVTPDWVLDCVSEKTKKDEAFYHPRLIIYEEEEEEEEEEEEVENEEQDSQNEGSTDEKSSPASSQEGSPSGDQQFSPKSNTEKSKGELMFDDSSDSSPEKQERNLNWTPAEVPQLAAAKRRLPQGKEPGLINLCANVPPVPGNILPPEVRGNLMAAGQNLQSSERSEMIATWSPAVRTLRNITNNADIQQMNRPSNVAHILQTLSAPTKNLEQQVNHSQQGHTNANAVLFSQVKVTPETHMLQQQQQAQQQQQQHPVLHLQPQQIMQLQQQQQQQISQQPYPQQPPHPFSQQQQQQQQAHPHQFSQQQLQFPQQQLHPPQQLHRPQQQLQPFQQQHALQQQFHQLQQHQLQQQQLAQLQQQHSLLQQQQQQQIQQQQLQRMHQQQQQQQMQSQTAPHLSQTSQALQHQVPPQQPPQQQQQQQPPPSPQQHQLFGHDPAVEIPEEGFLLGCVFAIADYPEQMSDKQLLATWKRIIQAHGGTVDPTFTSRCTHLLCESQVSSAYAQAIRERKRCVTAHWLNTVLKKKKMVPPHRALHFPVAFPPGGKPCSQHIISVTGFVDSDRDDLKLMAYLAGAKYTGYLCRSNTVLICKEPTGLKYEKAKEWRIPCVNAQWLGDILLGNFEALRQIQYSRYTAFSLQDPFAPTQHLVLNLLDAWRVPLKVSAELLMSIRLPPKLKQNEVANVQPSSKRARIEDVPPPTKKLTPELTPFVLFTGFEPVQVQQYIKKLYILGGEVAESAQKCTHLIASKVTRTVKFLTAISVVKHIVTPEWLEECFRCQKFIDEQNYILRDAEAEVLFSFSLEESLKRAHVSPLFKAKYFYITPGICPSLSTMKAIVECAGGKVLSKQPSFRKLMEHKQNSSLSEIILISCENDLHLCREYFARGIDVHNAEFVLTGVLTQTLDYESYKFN
UniProt Q96RG2: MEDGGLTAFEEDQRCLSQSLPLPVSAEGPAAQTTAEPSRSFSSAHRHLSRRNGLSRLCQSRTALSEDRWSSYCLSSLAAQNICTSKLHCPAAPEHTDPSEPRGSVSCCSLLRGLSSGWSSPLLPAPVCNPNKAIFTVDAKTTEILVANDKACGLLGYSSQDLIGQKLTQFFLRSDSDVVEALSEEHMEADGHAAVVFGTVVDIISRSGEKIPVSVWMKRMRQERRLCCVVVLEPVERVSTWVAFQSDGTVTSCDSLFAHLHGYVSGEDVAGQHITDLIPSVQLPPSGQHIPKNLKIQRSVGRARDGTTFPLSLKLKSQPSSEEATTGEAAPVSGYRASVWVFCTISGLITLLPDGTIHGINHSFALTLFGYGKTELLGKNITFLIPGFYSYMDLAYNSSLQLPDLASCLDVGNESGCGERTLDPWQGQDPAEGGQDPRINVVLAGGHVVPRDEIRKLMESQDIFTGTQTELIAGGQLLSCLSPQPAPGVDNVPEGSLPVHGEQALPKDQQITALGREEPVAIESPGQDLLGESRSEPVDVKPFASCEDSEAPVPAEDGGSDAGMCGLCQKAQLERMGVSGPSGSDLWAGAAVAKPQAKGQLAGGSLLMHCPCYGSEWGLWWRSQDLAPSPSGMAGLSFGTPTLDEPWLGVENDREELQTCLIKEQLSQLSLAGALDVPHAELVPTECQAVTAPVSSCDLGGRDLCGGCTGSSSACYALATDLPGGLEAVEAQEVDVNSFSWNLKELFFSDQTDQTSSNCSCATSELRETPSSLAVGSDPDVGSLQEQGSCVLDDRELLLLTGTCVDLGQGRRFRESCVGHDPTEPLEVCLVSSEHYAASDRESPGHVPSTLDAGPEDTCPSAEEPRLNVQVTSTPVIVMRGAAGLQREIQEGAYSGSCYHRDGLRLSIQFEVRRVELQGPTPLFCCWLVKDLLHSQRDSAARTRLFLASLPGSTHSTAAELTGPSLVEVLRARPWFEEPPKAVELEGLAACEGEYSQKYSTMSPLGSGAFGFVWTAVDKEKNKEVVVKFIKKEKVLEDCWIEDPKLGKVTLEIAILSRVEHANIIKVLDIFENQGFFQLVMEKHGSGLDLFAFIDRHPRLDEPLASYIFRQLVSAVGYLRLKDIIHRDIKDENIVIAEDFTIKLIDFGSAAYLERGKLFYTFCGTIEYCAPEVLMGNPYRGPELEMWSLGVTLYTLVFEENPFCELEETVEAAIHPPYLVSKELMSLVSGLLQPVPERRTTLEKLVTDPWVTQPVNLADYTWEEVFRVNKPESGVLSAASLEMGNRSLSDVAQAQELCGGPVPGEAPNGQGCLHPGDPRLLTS

Flag-Set9 = target: T2, Flag-Set9 (UniProt Q8WTS6)
T2 sequence: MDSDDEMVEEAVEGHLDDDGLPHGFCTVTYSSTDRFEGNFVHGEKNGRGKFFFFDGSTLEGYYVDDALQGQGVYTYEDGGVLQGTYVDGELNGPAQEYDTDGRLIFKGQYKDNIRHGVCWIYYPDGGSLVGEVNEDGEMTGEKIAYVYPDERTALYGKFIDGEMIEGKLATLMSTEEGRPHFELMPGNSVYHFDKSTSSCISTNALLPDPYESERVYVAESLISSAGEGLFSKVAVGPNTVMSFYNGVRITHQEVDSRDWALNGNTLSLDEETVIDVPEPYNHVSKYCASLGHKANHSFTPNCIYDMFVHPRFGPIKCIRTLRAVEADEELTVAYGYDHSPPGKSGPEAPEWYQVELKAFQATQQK

Flag-PTIP = Flag-PTIP (UniProt Q6ZW49)

Measured: binding

Pask, endogenous in HEK293T cells (from UniProt Q96RG2 1-1323) (enzyme)
no binding: all assays above

Source: PMC5035144
